Counter-ions that a name gives are not always drawn.
Test system: imidazoline receptor I2
Assay: Radioligand binding to imidazoline receptor I2 ([3H] Idazoxan, rat brain membranes)

Row | Structure (SMILES) | nH
1 | CN1CCc2c(c3ccccc3n2Cc2ccccc2)C1.Cl [1.9(1)·HCl, 5-benzyl-2-methyl-2,3,4,5-tetrahydro-1H-pyrido[4,3-b]indole hydrochloride] | 0.983
2 | Cc1ccc2c(c1)c1c(n2CCc2ccccc2)CCN(C)C1 [1.1.2(1-2)·HCl, 2,8-dimethyl-5-phenethyl-1,2,3,4-tetrahydro-1H-pyrido[4,3-b]indole hydrochloride] | 0.804
3 | CN1CCc2c(c3ccccc3n2Cc2ccccc2)C1 [1.9(1)·1/2NDSA, bis-(5-benzyl-2-methyl-2,3,4,5-tetrahydro-1H-pyrido[4,3-b]indole) naphthalene-1,5-disulfonate] | 3.31

Source: patent publication EP2236511A2, “LIGANDS OF ALPHA-ADRENOCEPTORS AND OF DOPAMINE, HISTAMINE, IMIDAZOLINE AND SEROTONIN RECEPTORS AND THE USE THEREOF” (priority 2007, dated 2009)
